These are yes or no findings as the source states them, for the method shown. Where a sequence is shown, tags or fusion partners need not be part of it.
Experiments:
[1] = biological target: EncFtnsH: truncated C-terminal hexahistidine-tagged variant of Rhodospirillum rubrum encapsulated ferritin (EncFtn, Rru_A0973), amino acids 1-96 plus the tag (Rhodospirillum rubrum) (UniProt Q2RVS1); experiment: condition: only iron-free protein made in minimal medium, no Fe2+ added; 5 uM; native MS; nESI, 100 mM ammonium acetate pH 8.0, about 5 uM protein; apo protein made in minimal medium, no Fe2+ added; both purified
[2] = biological target: EncFtnsH: truncated C-terminal hexahistidine-tagged variant of Rhodospirillum rubrum encapsulated ferritin (EncFtn, Rru_A0973), amino acids 1-96 plus the tag (Rhodospirillum rubrum) (UniProt Q2RVS1); experiment: condition: only the low molecular weight (monomer) SEC fractions, which hold almost no iron; 4.03 mg/ml loaded; SEC-MALLS; pooled monomer fractions of EncFtnsH, 100 ul of 4.03 mg/ml; Superdex 200 10/300 GL; 50 mM Tris-HCl pH 8.0, 150 mM NaCl, 22 C; both purified

B1: EncFtnsH: truncated C-terminal hexahistidine-tagged variant of Rhodospirillum rubrum encapsulated ferritin (EncFtn, Rru_A0973), amino acids 1-96 plus the tag (domain or fragment, UniProt Q2RVS1 1-96)
chain: MAQSSNSTHEPLEVLKEETVNRHRAIVSVMEELEAVDWYDQRVDASTDPELTAILAHNRDEEKEHAAMTLEWLRRNDAKWAEHLRTYLFTEGPITA
binding [1]: no binding | binding [2]: no binding
